This passage reports binding results from publication PMC4055580, “Simplagrin, a Platelet Aggregation Inhibitor from Simulium nigrimanum Salivary Glands Specifically Binds to the Von Willebrand Factor Receptor in Collagen and Inhibits Carotid Thrombus Formation In Vivo” (PLoS Neglected Tropical Diseases, 2014).

The chains behind the UniProt entries cited, without tags or fusion partners. Where a name states a change or a piece, a line headed by the entry shows the natural chain unless it says otherwise. Residues count along the entry.
UniProt P04275, residues 764-2813: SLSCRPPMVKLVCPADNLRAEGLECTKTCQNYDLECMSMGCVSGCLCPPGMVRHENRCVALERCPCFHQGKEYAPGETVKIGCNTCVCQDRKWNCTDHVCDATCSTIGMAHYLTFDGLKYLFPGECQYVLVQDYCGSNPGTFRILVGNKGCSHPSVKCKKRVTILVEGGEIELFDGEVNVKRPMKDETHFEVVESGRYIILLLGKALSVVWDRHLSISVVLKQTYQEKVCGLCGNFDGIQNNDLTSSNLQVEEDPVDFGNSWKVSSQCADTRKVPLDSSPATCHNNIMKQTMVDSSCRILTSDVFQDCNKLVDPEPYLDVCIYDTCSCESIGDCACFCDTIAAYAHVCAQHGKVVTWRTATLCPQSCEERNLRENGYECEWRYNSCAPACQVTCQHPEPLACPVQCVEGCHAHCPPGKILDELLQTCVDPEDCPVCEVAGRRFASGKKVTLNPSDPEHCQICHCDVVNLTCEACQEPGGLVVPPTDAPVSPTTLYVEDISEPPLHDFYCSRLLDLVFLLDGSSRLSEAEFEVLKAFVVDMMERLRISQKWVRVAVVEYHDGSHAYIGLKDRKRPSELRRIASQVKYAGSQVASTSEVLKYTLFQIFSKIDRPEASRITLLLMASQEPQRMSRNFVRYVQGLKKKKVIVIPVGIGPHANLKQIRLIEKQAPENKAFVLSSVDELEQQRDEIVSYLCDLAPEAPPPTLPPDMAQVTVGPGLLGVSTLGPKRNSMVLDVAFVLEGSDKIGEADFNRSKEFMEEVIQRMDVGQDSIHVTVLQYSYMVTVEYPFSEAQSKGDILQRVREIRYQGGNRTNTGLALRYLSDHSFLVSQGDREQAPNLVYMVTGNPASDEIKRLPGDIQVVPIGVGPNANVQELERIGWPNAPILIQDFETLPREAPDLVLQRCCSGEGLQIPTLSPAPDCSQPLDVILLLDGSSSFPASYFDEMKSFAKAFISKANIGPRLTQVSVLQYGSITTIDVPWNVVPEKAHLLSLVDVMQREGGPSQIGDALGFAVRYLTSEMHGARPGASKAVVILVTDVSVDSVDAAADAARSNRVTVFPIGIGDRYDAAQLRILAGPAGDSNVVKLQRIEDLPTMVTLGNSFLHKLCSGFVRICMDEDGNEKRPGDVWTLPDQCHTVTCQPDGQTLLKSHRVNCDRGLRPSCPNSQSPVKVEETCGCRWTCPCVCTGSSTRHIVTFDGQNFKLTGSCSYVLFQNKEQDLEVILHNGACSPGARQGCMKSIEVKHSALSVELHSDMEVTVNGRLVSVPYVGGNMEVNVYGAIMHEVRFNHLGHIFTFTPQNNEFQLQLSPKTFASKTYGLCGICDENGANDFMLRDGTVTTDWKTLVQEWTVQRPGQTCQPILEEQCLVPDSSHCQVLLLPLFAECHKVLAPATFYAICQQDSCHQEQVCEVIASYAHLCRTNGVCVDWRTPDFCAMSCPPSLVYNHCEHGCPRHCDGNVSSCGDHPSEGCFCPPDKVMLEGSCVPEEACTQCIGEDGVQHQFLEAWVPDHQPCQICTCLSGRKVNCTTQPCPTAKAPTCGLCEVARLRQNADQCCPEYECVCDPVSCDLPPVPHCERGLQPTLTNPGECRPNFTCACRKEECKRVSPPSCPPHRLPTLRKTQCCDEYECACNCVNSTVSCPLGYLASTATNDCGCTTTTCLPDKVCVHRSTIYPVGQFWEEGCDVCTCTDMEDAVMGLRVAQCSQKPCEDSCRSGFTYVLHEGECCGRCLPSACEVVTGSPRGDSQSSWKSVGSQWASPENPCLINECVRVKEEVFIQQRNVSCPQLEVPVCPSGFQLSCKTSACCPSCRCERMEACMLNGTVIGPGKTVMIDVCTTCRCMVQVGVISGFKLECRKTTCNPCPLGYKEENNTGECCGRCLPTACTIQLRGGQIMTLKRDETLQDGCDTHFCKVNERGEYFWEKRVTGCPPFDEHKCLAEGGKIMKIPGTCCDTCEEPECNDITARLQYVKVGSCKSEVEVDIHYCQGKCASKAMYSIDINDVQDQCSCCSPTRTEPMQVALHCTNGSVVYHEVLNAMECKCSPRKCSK
UniProt P02452: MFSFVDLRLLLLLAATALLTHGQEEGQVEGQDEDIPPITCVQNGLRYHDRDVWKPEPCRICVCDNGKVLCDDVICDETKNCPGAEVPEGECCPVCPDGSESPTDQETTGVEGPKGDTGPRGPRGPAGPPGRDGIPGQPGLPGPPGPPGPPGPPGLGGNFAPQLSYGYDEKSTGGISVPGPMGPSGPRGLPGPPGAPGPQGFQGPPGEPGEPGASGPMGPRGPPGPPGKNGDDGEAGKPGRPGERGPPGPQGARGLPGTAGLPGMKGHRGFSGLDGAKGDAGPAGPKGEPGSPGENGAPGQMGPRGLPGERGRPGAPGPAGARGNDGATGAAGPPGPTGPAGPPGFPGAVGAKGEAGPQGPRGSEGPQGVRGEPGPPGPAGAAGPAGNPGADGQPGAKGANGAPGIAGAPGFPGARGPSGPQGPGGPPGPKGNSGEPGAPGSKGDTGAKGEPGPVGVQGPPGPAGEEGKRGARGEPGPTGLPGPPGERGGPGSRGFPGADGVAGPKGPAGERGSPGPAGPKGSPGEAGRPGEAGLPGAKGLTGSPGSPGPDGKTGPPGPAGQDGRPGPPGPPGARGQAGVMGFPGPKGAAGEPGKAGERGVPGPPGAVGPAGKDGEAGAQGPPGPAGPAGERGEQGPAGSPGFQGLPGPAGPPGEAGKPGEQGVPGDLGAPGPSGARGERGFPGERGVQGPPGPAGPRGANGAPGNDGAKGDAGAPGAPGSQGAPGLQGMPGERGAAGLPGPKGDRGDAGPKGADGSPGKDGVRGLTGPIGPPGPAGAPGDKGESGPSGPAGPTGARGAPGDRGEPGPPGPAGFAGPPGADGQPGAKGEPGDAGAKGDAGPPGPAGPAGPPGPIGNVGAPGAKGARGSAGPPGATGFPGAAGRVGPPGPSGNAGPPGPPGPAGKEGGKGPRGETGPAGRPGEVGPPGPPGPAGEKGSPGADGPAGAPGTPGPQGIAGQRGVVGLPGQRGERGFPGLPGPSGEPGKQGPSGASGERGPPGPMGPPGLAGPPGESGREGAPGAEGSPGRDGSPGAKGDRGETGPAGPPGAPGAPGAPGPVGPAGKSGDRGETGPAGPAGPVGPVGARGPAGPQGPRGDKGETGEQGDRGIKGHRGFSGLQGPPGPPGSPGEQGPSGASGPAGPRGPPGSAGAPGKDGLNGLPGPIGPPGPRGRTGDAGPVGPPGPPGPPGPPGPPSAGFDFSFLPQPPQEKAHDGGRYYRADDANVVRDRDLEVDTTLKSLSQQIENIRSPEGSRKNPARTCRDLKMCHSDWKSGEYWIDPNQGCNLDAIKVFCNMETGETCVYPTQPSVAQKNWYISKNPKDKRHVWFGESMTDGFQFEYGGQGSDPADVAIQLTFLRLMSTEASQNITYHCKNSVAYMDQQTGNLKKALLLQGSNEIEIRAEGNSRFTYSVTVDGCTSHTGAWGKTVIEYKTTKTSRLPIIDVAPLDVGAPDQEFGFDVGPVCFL
UniProt P02461, residues 154-1221: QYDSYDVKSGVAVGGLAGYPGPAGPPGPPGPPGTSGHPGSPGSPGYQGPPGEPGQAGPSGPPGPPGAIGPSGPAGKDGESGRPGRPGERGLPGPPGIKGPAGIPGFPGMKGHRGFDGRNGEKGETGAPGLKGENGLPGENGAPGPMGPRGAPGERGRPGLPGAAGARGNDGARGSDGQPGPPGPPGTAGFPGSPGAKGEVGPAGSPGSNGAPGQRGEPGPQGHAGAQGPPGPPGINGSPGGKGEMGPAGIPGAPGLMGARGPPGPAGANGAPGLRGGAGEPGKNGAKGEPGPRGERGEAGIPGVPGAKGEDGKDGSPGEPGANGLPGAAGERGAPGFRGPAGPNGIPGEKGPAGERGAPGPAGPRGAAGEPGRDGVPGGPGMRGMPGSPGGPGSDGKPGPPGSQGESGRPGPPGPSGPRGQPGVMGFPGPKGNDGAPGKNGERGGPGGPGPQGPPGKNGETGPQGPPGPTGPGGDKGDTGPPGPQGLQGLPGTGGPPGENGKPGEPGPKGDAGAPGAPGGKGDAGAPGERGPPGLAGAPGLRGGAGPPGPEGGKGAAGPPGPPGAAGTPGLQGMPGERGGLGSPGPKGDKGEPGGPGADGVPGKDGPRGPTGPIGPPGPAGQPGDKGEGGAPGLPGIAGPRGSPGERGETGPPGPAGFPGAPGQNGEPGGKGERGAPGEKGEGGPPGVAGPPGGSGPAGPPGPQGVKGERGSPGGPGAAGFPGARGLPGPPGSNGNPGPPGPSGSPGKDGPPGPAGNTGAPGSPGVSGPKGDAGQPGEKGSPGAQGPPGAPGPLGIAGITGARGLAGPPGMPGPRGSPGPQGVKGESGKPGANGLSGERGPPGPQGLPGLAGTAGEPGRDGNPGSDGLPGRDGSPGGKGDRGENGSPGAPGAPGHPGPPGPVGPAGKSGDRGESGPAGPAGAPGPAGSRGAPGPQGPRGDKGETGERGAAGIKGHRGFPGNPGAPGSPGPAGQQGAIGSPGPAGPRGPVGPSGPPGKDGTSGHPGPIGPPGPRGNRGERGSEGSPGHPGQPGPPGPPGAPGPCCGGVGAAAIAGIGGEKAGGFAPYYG
UniProt P04004, residues 20-478: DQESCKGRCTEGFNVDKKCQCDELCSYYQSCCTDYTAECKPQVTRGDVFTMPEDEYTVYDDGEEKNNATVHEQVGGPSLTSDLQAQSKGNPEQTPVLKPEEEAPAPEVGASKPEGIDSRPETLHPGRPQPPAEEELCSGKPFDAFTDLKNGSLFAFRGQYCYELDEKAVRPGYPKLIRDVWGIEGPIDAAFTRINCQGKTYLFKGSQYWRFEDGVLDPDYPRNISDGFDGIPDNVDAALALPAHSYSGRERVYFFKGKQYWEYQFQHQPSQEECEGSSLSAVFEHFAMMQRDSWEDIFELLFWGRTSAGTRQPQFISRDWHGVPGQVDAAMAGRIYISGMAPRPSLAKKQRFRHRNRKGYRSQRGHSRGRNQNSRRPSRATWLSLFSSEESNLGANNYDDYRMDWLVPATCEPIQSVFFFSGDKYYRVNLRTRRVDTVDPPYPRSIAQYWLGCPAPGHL

These are yes or no findings as the source states them, for the method shown. Some entries that bind do so weakly or less than the wild type.

Assay [1] deals with T1, Simplagrin (Simulium platelet aggregation inhibitor), recombinant (Simulium nigrimanum) (UniProt D1FQ14).
T1 sequence: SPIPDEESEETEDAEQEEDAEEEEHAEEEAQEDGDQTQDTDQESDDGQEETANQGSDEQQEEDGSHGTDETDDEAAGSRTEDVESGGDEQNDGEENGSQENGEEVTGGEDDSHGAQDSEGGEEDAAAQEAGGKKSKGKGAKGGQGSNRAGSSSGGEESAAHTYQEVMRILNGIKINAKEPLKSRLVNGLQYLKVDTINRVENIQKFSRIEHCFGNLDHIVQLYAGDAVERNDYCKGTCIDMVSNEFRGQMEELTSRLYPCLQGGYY
The experiment in a line: SPR; initial screening: Simplagrin immobilised on a CM5 chip, analytes injected for 120 s at 20 µL/min, dissociation 400 s; HBS-P (10 mM Hepes pH 7.4, 150 mM NaCl, 0.005% P20); both purified.

Assay [2] has as its target T1, Simplagrin (Simulium platelet aggregation inhibitor), recombinant (Simulium nigrimanum). Briefly: SPR; Simplagrin immobilised on CM5, synthetic collagen-derived peptides or collagen type I flowed for 90 s at 20 µL/min; both purified. (In general: SPR reads the build-up and loss of mass on a sensor chip optically.)
Assay [3] has as its target von Willebrand factor (vWF), factor VIII free (UniProt P04275). The experiment in a line: SPR; in solution competition: vWF immobilised on CM5; collagen type I (0.1 µM) or RGQOGVMGF peptide (1 µM) with or without Simplagrin (0.2 µM); both purified.
The target in assay [4] is Soluble human collagen type I (human) (UniProt P02452). Briefly: ELISA; solid phase: 96-well plate coated with collagen type I or RGQOGVMGF peptide, Simplagrin at different concentrations, detected with rabbit anti-Simplagrin antibodies; both purified. In general terms: An ELISA detects its analyte on a solid surface through an enzyme-linked reagent.
Assay [5] has as its target Soluble human collagen type III (human) (UniProt P02461). Briefly: ELISA; solid phase: collagens (25 µg/mL in PBS pH 7.4) coated overnight at 4°C, Simplagrin 0-3 µM in PBS-T for two hours, detected with anti-Simplagrin antibodies; both purified.
Assay [6] concerns the target Soluble human collagen type I (human) (UniProt P02452). Described as above.
Assay [7] concerns the target T1, Simplagrin (Simulium platelet aggregation inhibitor), recombinant (Simulium nigrimanum). Briefly: SEC-MALS; SEC-MALS-QELS-HPLC, TSK gel G3000PWxl, phosphate buffer pH 7.4 with 308 mM NaCl and 0.5 M urea, 0.5 mL/min; both purified.
Assay [8] concerns the target Soluble human collagen type III (human) (UniProt P02461). Briefly: SPR; collagen type III immobilised; Simplagrin alone or preincubated with saturating concentrations of RGQOGVMGF peptide in HBS-P; both purified.

As to “von Willebrand factor (vWF), factor VIII free (from UniProt P04275 764-2813)”, the binding result in assay [1] is reported as “no binding”.
In the case of “Soluble human collagen type I (from UniProt P02452 162-1218; P08123 80-1119)”, the binding entry in assay [1] and in assay [2] was “binds” each time.
“Vitronectin (from UniProt P04004 20-478)”: the binding entry in assay [1] is “no binding”.
As for “Soluble human collagen type III (from UniProt P02461 154-1221)”, the binding entry in assay [1] is given as “binds”.

B1: Simplagrin (Simulium platelet aggregation inhibitor), recombinant (natural protein, Simulium nigrimanum, UniProt D1FQ14 21-286, looked up)
chain: SPIPDEESEETEDAEQEEDAEEEEHAEEEAQEDGDQTQDTDQESDDGQEETANQGSDEQQEEDGSHGTDETDDEAAGSRTEDVESGGDEQNDGEENGSQENGEEVTGGEDDSHGAQDSEGGEEDAAAQEAGGKKSKGKGAKGGQGSNRAGSSSGGEESAAHTYQEVMRILNGIKINAKEPLKSRLVNGLQYLKVDTINRVENIQKFSRIEHCFGNLDHIVQLYAGDAVERNDYCKGTCIDMVSNEFRGQMEELTSRLYPCLQGGYY
notes: Simplagrin (cluster Sim-50), salivary gland protein of Simulium nigrimanum; precursor of 286 aa with a predicted signal peptide of 20 aa; the construct holds the mature protein and a 6X-His tag before the stop codon; Synthetic codon optimised gene in the VR2001 TOPO vector; also called Sim-50; recombinant Simplagrin; source: FreeStyle293 F (HEK293) cells, transfected, secreted; purified (Ni2+ …)
Turning to B1, the binding entry in assay [3] is given as “no binding (tested: 0.2 µM)”; in assay [4], “binds”; in assay [5], “binds”; in assay [6], “binds”; in assay [7], “no binding”; in assay [8] it was “binds”.
